Laboratory results: patent US11913081B2, “Proximity-dependent split RNA polymerases as a versatile biosensor platform” (The University of Chicago, priority 2016, dated 2024)
For at least one compound, name, drawing or mass did not settle the structure.

What was measured:
Assay type in all cases: cell-based
HEK293T cells [1] = assay: Flow cytometry of GFP in cells cotransfected with GFP vector and rapa-T7-shRNA(GFP) vector (RNAi output); conditions: rapamycin 0-10 nM, 44 h
HEK293T cells [2] = assay: Fluorescence microscopy of rapa-T7-mRNA(GFP) transfected cells (protein output); conditions: 10 nM rapamycin
HEK293T cells [3] = assay: Fluorescence microscopy of rapa-T7-F30-2×dBroccoli transfected cells (fluorescent RNA aptamer output); conditions: 100 nM rapamycin for 30 min, 20 μM DHFBI-1T

## CO[C@H]1C[C@@H]2CC[C@@H](C)[C@@](O)(O2)C(=O)C(=O)N2CCCC[C@H]2C(=O)O[C@H]([C@H](C)C[C@@H]2CC[C@@H](O)[C@H](OC)C2)CC(=O)[C@H](C)/C=C(\C)[C@@H](O)[C@@H](OC)C(=O)[C@H](C)C[C@H](C)/C=C/C=C/C=C/1C [rapamycin]
HEK293T cells [1]
  GFP signal: dose-dependent knockdown
HEK293T cells [2]
  GFP fluorescence: dramatic enhancement
HEK293T cells [3]
  intracellular fluorescence: robust enhancement
